In paper PMC6868227:
Results are given in words; binding and its absence hold for the method and conditions named. Binding seen in cells or lysates may run through a third protein. Some entries that bind do so weakly or less than the wild type. For some assays here: Tags and fused reporters may be left off the sequences shown.

Protein sequences, listed by entry. Tags and fused reporters are not part of them.
UniProt P40763: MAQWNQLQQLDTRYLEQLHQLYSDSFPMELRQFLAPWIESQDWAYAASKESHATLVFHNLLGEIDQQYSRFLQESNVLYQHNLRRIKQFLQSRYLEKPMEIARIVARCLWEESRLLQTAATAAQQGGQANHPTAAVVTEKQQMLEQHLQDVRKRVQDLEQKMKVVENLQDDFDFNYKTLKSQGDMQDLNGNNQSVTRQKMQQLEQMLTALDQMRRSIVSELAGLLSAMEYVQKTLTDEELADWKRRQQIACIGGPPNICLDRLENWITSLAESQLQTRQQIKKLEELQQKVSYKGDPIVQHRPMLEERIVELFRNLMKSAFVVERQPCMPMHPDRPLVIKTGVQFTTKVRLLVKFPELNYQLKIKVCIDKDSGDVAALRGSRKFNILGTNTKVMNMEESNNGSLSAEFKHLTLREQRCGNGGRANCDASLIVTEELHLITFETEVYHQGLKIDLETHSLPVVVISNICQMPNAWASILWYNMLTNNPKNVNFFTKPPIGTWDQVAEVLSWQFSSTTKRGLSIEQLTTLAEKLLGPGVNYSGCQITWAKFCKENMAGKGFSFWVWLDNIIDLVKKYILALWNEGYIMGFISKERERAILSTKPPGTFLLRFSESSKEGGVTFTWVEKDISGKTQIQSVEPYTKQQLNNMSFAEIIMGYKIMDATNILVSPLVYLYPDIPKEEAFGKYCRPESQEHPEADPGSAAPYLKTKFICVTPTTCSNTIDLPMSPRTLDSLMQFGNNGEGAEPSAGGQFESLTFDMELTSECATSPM

Tests used:
VGLL4-Flag = target: T1, VGLL4-Flag (UniProt Q14135); assay: co-IP; IP with a Flag-tag antibody from RIPA lysates of VGLL4-Flag-overexpressing MDA-MB-231 cells transfected with VGLL4 siRNA or NC; blot for STAT3
T1 sequence: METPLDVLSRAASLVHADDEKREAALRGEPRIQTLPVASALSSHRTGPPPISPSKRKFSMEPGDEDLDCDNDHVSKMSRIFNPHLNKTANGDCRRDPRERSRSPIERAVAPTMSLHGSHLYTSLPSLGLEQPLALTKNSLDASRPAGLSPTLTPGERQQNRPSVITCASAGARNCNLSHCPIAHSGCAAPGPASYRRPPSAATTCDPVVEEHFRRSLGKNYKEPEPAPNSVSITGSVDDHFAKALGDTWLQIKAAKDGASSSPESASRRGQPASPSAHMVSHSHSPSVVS

[1] = target: T2, VGLL4-BirA*-HA (full-length VGLL4 amino acid sequence fused with BirA*) (UniProt Q14135); assay: co-IP; IP with an HA-tag antibody from RIPA lysates of MCF-10A cells stably expressing the BirA*-HA constructs, protein A/G plus-agarose, 4 °C overnight; blot for STAT3
T2 sequence: T1 sequence

[2] = target: STAT3 (endogenous, MCF-10A cells) (human (endogenous in MCF-10A)) (UniProt P40763); assay: co-IP; IP with a STAT3 antibody from RIPA lysate of MCF-10A cells overexpressing VGLL4-BirA*-HA, protein A/G plus-agarose, 4 °C overnight; blot for VGLL4
[3] = target: STAT3 (endogenous, MDA-MB-231 cells) (human (endogenous in MDA-MB-231)) (UniProt P40763); assay: co-IP; IP with a STAT3 antibody from RIPA lysate of normal MDA-MB-231 cells (both proteins endogenous), protein A/G plus-agarose, 4 °C overnight; blot for VGLL4
[4] = target: STAT3 (endogenous, MDA-MB-231 cells) (human (endogenous in MDA-MB-231)) (UniProt P40763); assay: co-IP; IP with a STAT3 antibody from RIPA lysates of VGLL4-Flag-overexpressing MDA-MB-231 cells transfected with VGLL4 siRNA or NC; blot for exogenous VGLL4

With “STAT3 (endogenous, MDA-MB-231 cells) (from UniProt P40763 1-770)” as the molecule, how does the binding (VGLL4-Flag) read?
Its binding is “binds”.

Which binding [1] does the source give for “STAT3 (endogenous, MCF-10A cells) (from UniProt P40763 1-770)” here?
The binding was “binds”.

B1: VGLL4-BirA*-HA (full-length VGLL4 amino acid sequence fused with BirA*) (protein, UniProt Q14135 1-290)
chain: T1 sequence
B1 was tested. Which binding [2] did it give?
The binding was “binds”.

B2: VGLL4 (endogenous, MDA-MB-231 cells) (protein, UniProt Q14135 1-290)
chain: T1 sequence
For B2, which binding [3] is on record?
Its binding is “binds”.

B3: VGLL4-Flag (protein, UniProt Q14135 1-290)
chain: T1 sequence
Which binding [4] does the source give for B3 here?
Its binding is “binds”.
